# Library screening results

Chains of the proteins cited; added tags and fusions are not shown.
UniProt E9BF75, entry or part of it: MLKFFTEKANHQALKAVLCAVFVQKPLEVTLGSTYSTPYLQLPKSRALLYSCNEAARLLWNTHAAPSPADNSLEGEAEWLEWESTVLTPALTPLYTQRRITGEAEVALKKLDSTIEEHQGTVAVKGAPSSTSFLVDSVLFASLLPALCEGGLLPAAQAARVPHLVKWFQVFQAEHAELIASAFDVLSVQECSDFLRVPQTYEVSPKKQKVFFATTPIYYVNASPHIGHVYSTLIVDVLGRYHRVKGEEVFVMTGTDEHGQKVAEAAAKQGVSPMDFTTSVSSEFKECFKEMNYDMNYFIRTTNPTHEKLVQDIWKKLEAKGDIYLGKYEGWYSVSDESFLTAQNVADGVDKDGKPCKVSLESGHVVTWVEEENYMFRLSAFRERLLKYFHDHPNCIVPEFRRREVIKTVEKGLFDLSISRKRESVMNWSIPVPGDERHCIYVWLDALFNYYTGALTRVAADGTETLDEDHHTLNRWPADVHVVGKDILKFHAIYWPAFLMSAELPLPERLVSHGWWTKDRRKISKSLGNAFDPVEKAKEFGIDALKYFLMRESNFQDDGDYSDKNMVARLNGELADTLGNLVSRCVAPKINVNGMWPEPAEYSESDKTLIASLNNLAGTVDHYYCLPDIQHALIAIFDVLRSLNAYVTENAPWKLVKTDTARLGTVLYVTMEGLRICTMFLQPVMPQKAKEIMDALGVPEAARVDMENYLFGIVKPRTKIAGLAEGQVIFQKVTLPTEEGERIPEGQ

Data taken from ChEMBL document CHEMBL3988442, “University of Dundee, Small-Polar-MMV Screening Library” (2021).

All values are in %.
How 0% and 100% were set is not recorded. Most values in the screen are low, and negative values occur.
The compounds are a random part of those screened.

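Methionyl-tRNA synthetase (putative), Leishmania donovani (UniProt E9BF75). Primary screen of methionyl-tRNA synthetase; the read-out is not stated. The test concentration is not given. The values are filed as inhibition. Of about 68,000 compounds tested this way, about 24 (0.035%) reached 50% or more in at least one test.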

compound	inhibition
c1coc(CN2CCc3ncnc(C4CCOC4)c3CC2)c1 (stereo not shown)	6.84%
O=C(c1cccc(-n2cnnn2)c1)N1CCC2(CC1)OCCO2	19.02%
COc1cccc2c1OCC(C(=O)NCCc1nnc(C)s1)C2 (stereo not shown)	11.87%
Cc1noc(C)c1-c1nc(C2CCCN(CCC(N)=O)C2)ccc1CO (stereo not shown)	10.38%
Cc1cc(CCC(=O)N2CC[C@H](O)C2)ccc1Br	13.09%
Cc1ncsc1C(=O)N1CC[C@@]2(O)CCN(C(=O)N3CCCC3)C[C@H]2C1	10.92%
O=C(NCc1ccc(OCC2CC2)nc1)Nc1c(F)cccc1F	8.877%
CNC(=O)COC1COC2(CCN(Cc3cccnc3)CC2)C1 (stereo not shown)	12.02%
CC(C)n1nc2c(cc1=O)CN(Cc1nnc(C3CC3)o1)CC2	0%
CCOCCn1nc(C)cc1C(=O)N1CCN(C(C)C)C(CC)C1 (stereo not shown)	12.68%
COCCOc1cccc(C(=O)N2CCCC(n3cccn3)C2)c1 (stereo not shown)	1.742%
Cc1cccc(SC2CCN(C(=O)CCCn3cnnn3)CC2)c1	14.4%
CN1CCN(CC2CC2)C(=O)C12CCN(C(=O)c1ccnnc1)CC2	10.73%
CC(C)C1SCC(=O)Nc2c1c(O)nn2C1CCCC1 (stereo not shown)	12.24%
O=C(NCc1ccccc1CN1CCC(O)CC1)Nc1ccccn1	8.361%
CC(C)NC(=O)CCNC(=O)Nc1ccc(-n2cncn2)c(F)c1	7.368%
CCOc1cc(C)nc(N2CCN(C(C)c3nc(C)no3)CC2)n1 (stereo not shown)	10.92%
Cc1nc(C)c(C(=O)N2CCCC(n3ccnc3C)C2)s1 (stereo not shown)	0.6623%
Cc1nc(N(C)C)nc2c1COCC21CCN(C(=O)NCC(C)C)C1 (stereo not shown)	5.077%
Cc1cc(C(=O)NC2CCN(c3ncccc3C#N)CC2)no1	13.04%
Cc1noc(C2CN(S(C)(=O)=O)Cc3ccnn3C2)n1 (stereo not shown)	13.14%
CCOCC1CN(C(=O)c2ccco2)Cc2cnn(CC)c21 (stereo not shown)	1.333%
CN1CCC(N(C)CCC(=O)N2CCC(Cc3ccc(F)cc3)CC2)C1 (stereo not shown)	34.84%
CC1CCN(C(=O)c2occc2COc2cccc(C#N)c2)CC1	5.707%
Cc1nnc(CN(C)S(=O)(=O)c2ccc(Br)cc2Cl)n1C	13.87%
Cc1cnn(CC2CN(CC(=O)NCc3ccco3)CCO2)c1 (stereo not shown)	14.61%
CC(C)NC(=O)c1nc(COc2ccc3c(c2)OCO3)no1	4.91%
O=S(=O)(C1CC1)N1CCc2ncc(Cn3cccn3)n2CC1	16.38%
O=C(Cc1ccccc1F)N1C[C@@H]2COC[C@]2(COc2cccnc2)C1	19.87%
CCCn1nccc1-c1cc(C2CCN(S(C)(=O)=O)CC2)ccn1	12.26%
Cc1cc(NCCO)nc(N2CCN(C)CC2)c1C#N	4.348%
O=C(CCn1cncn1)NC1CCS(=O)(=O)C1 (stereo not shown)	10.63%
CCN1C(=O)C2(CCOCC2)c2cc(NC(=O)c3ccco3)ccc21	4.724%
CCc1nc(NCCn2cccn2)c2c(n1)c(C)nn2C	-21.86%
Cc1cccnc1C(=O)N1CCC(Cc2cnc3[nH]ccc3c2)CC1	5.729%
Cn1ccnc1CN1CCC2(CCCN2c2ncccn2)CC1	17.07%
CCOc1ccc(NC(C)C(=O)Nc2cc(C)no2)cc1 (stereo not shown)	-2.842%
CC(NC(=O)NCCCNS(C)(=O)=O)c1ccncc1 (stereo not shown)	20.14%
COc1ccc2c(c1)CN(c1nc(C)cc(C)n1)CC2	12.21%
O=C(C1CCCS1)N1CCOc2cccc(F)c21 (stereo not shown)	7.521%
O=C(c1cccnc1)N1CCn2nnc(COc3cccnc3)c2C1	14.16%
O=C(NCCc1ccncc1)c1ccc(S(=O)(=O)NC2CCC2)cc1	23.03%
NC(=O)c1cnn2c(C3CCN(CCO)CC3)ccnc12	17.45%
CCN1CCN(c2ccc(F)cc2C(C)NCc2ccncc2)CC1 (stereo not shown)	15.99%
COCCOCC(=O)N1C[C@@H]2CC[C@H](Oc3ccccc3F)[C@@H]2C1	9.646%
CS(=O)(=O)N1CC[C@H]2[C@H](C[C@@H](Cn3cncn3)N2CC2CC2)C1	11.02%
CC(CN1CCOCC1)NC(=O)NCCc1ccc(Cl)s1 (stereo not shown)	7.958%
COc1ccc(F)cc1C(=O)N(C)[C@@H]1CC[C@@H](O)[C@@H]1O	8.924%
COc1c(C(=O)NCc2cccnc2)nnn1Cc1ccccc1	19.85%
NC(c1ccccc1)c1ccc(OC(F)F)cc1 (stereo not shown)	14.87%
Cc1ccc(C)c(OCc2cc(C(=O)N(C)Cc3nonc3C)no2)c1	-1.676%
Cc1cc(CN(C)C(=O)C2CCC(=O)N(CC3CCCCC3)C2)n[nH]1 (stereo not shown)	5.028%
Cn1cc(C2CC(=O)NC23CCN(C(=O)c2cccnc2)CC3)cn1 (stereo not shown)	18.73%
CC(=O)N1CCC(c2cccc(Oc3ccccc3)n2)CC1	17.09%
Cc1cccc(CN2Cc3[nH]nc(COCc4nccs4)c3C2)n1	10.03%
Cc1ccc(CN2CC[C@H](c3nnc(-c4ccco4)o3)C2)cc1	-7.119%
COc1ccc(OC)c(-c2nc(CN(C)Cc3noc(C)n3)c(C)o2)c1	17.46%

The first 5 entries again:

compound	inhibition
c1coc(CN2CCc3ncnc(C4CCOC4)c3CC2)c1 (stereo not shown)	6.84%
O=C(c1cccc(-n2cnnn2)c1)N1CCC2(CC1)OCCO2	19.02%
COc1cccc2c1OCC(C(=O)NCCc1nnc(C)s1)C2 (stereo not shown)	11.87%
Cc1noc(C)c1-c1nc(C2CCCN(CCC(N)=O)C2)ccc1CO (stereo not shown)	10.38%
Cc1cc(CCC(=O)N2CC[C@H](O)C2)ccc1Br	13.09%